Source: PubChem BioAssay AID504834 (National Center for Advancing Translational Sciences (NCATS), 2011)
About 22,000 (6.9%) of roughly 320,000 compounds were called active. Inconclusive results, whose numbers are uncertain, are shown with a selection of clear calls. The call rests on the fitted dose curve; in most records, active means well fitted inhibition curve with a large enough effect; inconclusive means small, poorly fitted or top-dose-only effect, or another doubt; inactive means no such curve, though single readings can be large or run the other way. Where the call is inconclusive, the potency comes from a doubtful curve fit.

Test: Primary qHTS for delayed death inhibitors of the malarial parasite plastid, 96 hour incubation
Details: P. falciparum luciferase reporter growth; series mostly up to 28.7 µM
How it was run: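 P. falciparum expressing integrated firefly luciferase, in erythrocytes at 2% hematocrit, 0.05% parasitemia, incubated with compounds 96 h at 37 C, 5% CO2. Growth inhibition read as loss of luminescence; two-generation exposure targets delayed-death apicoplast inhibitors.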
Potency means the concentration at half of the fitted maximal effect.

| SMILES | Potency |
| --- | --- |
| COc1cccc(NC(=O)c2ccc(CN3CCc4ccccc4C3)cc2)c1 | inconclusive: 3.29 µM [inhibitor, single point] |
| O=C1C2CCCCN2C(=O)N1CCCCN1CCN(c2ccc(F)cc2)CC1 (stereo unspecified) | inconclusive: 18.5 µM [inhibitor, single point] |
| Cc1ccc(S(=O)(=O)N(CC(=O)Nc2ccccc2-c2ccccc2)c2ccc(C)cc2C)cc1 | inactive |
| Cc1c(/C(O)=C2\C(=O)C(=O)N(CCN(C)C)C2c2cccnc2)cnn1-c1ccccc1 (stereo unspecified) | inconclusive: 10.4 µM [inhibitor, single point] |
| CN1CCN(c2ccccc2NC(=O)c2ccc(F)cc2)CC1 | inconclusive: 10.4 µM [inhibitor, single point] |
| CCN(CC)CCNC(C(=O)Nc1cc(C(F)(F)F)ccc1Cl)c1ccccc1 (stereo unspecified) | inconclusive: 10.4 µM [inhibitor, single point] |
| CCOC(=O)c1sc(=S)n(CC)c1NC(=O)C1CC1 | inconclusive: 18.5 µM [inhibitor, single point] |
| Cc1c(C(=O)OCC(=O)N2C(C)CCCC2C)oc2ccccc12 (stereo unspecified) | inactive |
| Cn1c(SCC(=O)Nc2ccc(NC(=O)c3cccs3)cc2)nnc1-c1ccncc1 | inactive |
| CCOc1ccc(C(=O)Nc2c(C(N)=O)oc3ccccc23)cc1 | inactive |
| COc1ccc2c(c1)CCc1c(C(=O)N3CCCCCC3)noc1-2 | inconclusive: 10.4 µM [inhibitor, partial curve] |
| Cc1nc2ccccn2c1C(=O)N/N=C/c1ccc(F)cc1 | inconclusive: 20.8 µM [inhibitor, partial curve, poor fit] |
| Cc1ccc(CC(=O)N2CCN(S(=O)(=O)c3ccccc3)CC2)cc1C | inconclusive: 11.7 µM [inhibitor, partial curve, poor fit] |
| c1ccc(Cn2nnnc2C(c2ccncc2)N2CCOCC2)cc1 (stereo unspecified) | active: 0.738 µM |
| CCOC(=O)N1CCN(C(=O)CSCc2ccc(C)cc2)CC1 | inactive |
| O=C(N/N=C/C=C\c1cccc([N+](=O)[O-])c1)c1ccccn1 | inconclusive: 18.5 µM [inhibitor, single point] |
| COc1cc(/C=C/C(=O)OCC(=O)NCc2ccco2)ccc1O | inactive |
| O=C(c1ccncc1)N1C2C=CC(C2)C1(C(F)(F)F)C(F)(F)F (stereo unspecified) | inconclusive: 11.7 µM [inhibitor, single point] |
| COc1cccc(CN2CCNC(=O)C2CC(=O)N(C)CC2CCOCC2)c1OC (stereo unspecified) | inconclusive: 11.7 µM [inhibitor, single point] |
| CC(=O)Nc1ccc2nc(NC(=O)C(Cl)(Cl)Cl)sc2c1 | inconclusive: 7.38 µM [inhibitor, partial curve, poor fit] |
| Cc1oc(-c2ccccc2F)nc1CS(=O)(=O)CC(=O)NCCCN1CCN(C)CC1 | active: 10.4 µM |
| COC(=O)C1=C(C)NC(C)=C(C(=O)OC)C1c1ccc(-c2cccc(Cl)c2Cl)o1 | inconclusive: 8.28 µM [inhibitor, partial curve, poor fit] |
| CC1CC(C)(C)CC2(C1)NC(=S)N(c1ccccc1)N2 (stereo unspecified) | inactive |
| CCN(CC)S(=O)(=O)c1ccc(C(=O)Nc2nnc(CSC)o2)cc1 | inconclusive: 11.7 µM [inhibitor, single point] |

| SMILES | Potency |
| --- | --- |
| O=C(c1ccccc1Cc1ccccc1)N1CCN(S(=O)(=O)c2ccccc2F)CC1 | active: 13.1 µM |
| Cc1ccc(C(=O)COc2nc(C)cc(C)c2C#N)cc1 | inconclusive: 20.8 µM [inhibitor, partial curve, poor fit] |
| COc1ccc(CCNC(=O)COC(=O)Cn2cnc3c2c(=O)n(C)c(=O)n3C)cc1 | inconclusive: 18.5 µM [inhibitor, single point] |
| CCNC(=S)NNC(=O)C(c1ccccc1)c1ccccc1 | inactive |
| Cc1ccc2ccccc2c1NC(=O)Cn1nnc(-c2cccnc2)n1 | active: 0.657 µM |
| O=C1Nc2ccccc2N(O)N1c1ccc(S(=O)(=O)N2CCOCC2)cc1 | inconclusive: 11.7 µM [inhibitor, single point] |
| COc1ccc(S(=O)(=O)NCC2CCC(C(=O)NCc3ccc(F)cc3)CC2)cc1 (stereo unspecified) | inactive |
| COc1ccccc1NC(=O)C1=C(C)NC(=O)NC1c1cc(C)cs1 (stereo unspecified) | inconclusive: 0.465 µM [inhibitor, full curve] |
| O=C(NNC(=S)NC(=O)c1ccccc1)c1cccnc1 | inconclusive: 10.4 µM [inhibitor, single point] |
| CC1Cc2ccccc2N1S(=O)(=O)c1cccc(C(=O)NCCCO)c1 (stereo unspecified) | inconclusive: 8.28 µM [inhibitor, partial curve] |
| COc1ccc(Oc2coc3c(CN4CCOCC4)c(O)ccc3c2=O)cc1 | active: 2.94 µM |
| CSc1ccc(C2NC(=O)CCC2[N+](=O)[O-])cc1 (stereo unspecified) | inconclusive: 7.38 µM [inhibitor, partial curve, poor fit] |
| CC(C)CNC(=O)COC(=O)c1cc(S(=O)(=O)N2CCCCC2)ccc1N1CCOCC1 | inconclusive: 10.4 µM [inhibitor, single point] |
| COc1cc2c(cc1OC)CN(C(=O)c1cc(S(=O)(=O)N3CCOCC3)ccc1Cl)CC2 | inconclusive: 10.4 µM [inhibitor, single point] |
| Cc1cc(=O)[nH]c(N2CCCC2)n1 | active: 11.7 µM |
| CC1CCCN(S(=O)(=O)c2cccc(C(=O)NCc3ccco3)c2)C1 (stereo unspecified) | inconclusive: 10.4 µM [inhibitor, single point] |
| COCCNC(=S)Nc1ccc(Cl)c(Cl)c1 | inconclusive: 0.37 µM [inhibitor, full curve, poor fit] |
| O=C(CN1CCCCCC1)Nc1ccc([N+](=O)[O-])cc1Cl | inactive |
| CC(=O)Nc1ccc(S(=O)(=O)N2CCN(c3cc(C)ccc3C)CC2)cc1 | active: 13.1 µM |
| CCOc1ccc(NS(=O)(=O)c2ccc(C(=O)NNC(=O)c3ccccc3O)cc2)cc1 | inconclusive: 18.5 µM [inhibitor, single point] |
| CN(C)S(=O)(=O)N1CCC(Oc2ccc(C(=O)NCCc3cscn3)cc2)CC1 | inconclusive: 18.5 µM [inhibitor, single point] |
| CCCCSCc1nc2ccccn2c1Br | inconclusive: 18.5 µM [inhibitor, single point] |
| COc1ccccc1CNC(=O)COc1cc2c(c3oc(=O)cc(C)c13)CCC(C)(C)O2 | active: 3.7 µM |
| O=C(CN1C(=O)S/C(=C/c2cccnc2)C1=O)N1CCOCC1 | inconclusive: 8.28 µM [inhibitor, partial curve, poor fit] |

A second format for 14 compounds above.
SMILES | Potency
O=C(c1ccccc1Cc1ccccc1)N1CCN(S(=O)(=O)c2ccccc2F)CC1 | active: 13.1 µM
Cc1ccc(C(=O)COc2nc(C)cc(C)c2C#N)cc1 | inconclusive: 20.8 µM [inhibitor, partial curve, poor fit]
COc1ccc(CCNC(=O)COC(=O)Cn2cnc3c2c(=O)n(C)c(=O)n3C)cc1 | inconclusive: 18.5 µM [inhibitor, single point]
CCNC(=S)NNC(=O)C(c1ccccc1)c1ccccc1 | inactive
Cc1ccc2ccccc2c1NC(=O)Cn1nnc(-c2cccnc2)n1 | active: 0.657 µM
O=C1Nc2ccccc2N(O)N1c1ccc(S(=O)(=O)N2CCOCC2)cc1 | inconclusive: 11.7 µM [inhibitor, single point]
COc1ccc(S(=O)(=O)NCC2CCC(C(=O)NCc3ccc(F)cc3)CC2)cc1 (stereo unspecified) | inactive
COc1ccccc1NC(=O)C1=C(C)NC(=O)NC1c1cc(C)cs1 (stereo unspecified) | inconclusive: 0.465 µM [inhibitor, full curve]
O=C(NNC(=S)NC(=O)c1ccccc1)c1cccnc1 | inconclusive: 10.4 µM [inhibitor, single point]
CC1Cc2ccccc2N1S(=O)(=O)c1cccc(C(=O)NCCCO)c1 (stereo unspecified) | inconclusive: 8.28 µM [inhibitor, partial curve]
COc1ccc(Oc2coc3c(CN4CCOCC4)c(O)ccc3c2=O)cc1 | active: 2.94 µM
CSc1ccc(C2NC(=O)CCC2[N+](=O)[O-])cc1 (stereo unspecified) | inconclusive: 7.38 µM [inhibitor, partial curve, poor fit]
CC(C)CNC(=O)COC(=O)c1cc(S(=O)(=O)N2CCCCC2)ccc1N1CCOCC1 | inconclusive: 10.4 µM [inhibitor, single point]
COc1cc2c(cc1OC)CN(C(=O)c1cc(S(=O)(=O)N3CCOCC3)ccc1Cl)CC2 | inconclusive: 10.4 µM [inhibitor, single point]

Remaining list, next part:

| SMILES | Potency |
| --- | --- |
| CCOCCOC(=O)c1cccc2c1-c1ccccc1C2=O | inactive |
| Cc1nnc(SCC(=O)Nc2ccccc2F)n1-c1ccc(F)cc1 | inactive |
| COC(=O)Cn1c(=NC(=O)c2cc(OC)c(OC)c(OC)c2)sc2cc(OC)ccc21 | inconclusive: 18.5 µM [inhibitor, partial curve, poor fit] |
| O=C(/C=C/c1ccc([N+](=O)[O-])cc1)/C=C/c1ccco1 | inactive |
| O=C(CN1CCCN(S(=O)(=O)c2ccc(F)cc2)CC1)Nc1ccccc1Br | inactive |
| CCN1CCN(S(=O)(=O)c2ccc(Cl)c(C(=O)NCCc3ccccc3)c2)CC1 | inactive |
| Clc1ccc2[nH]cc(-c3nnnn3-c3ccc4ccccc4c3)c2c1 | inconclusive: 18.5 µM [inhibitor, single point] |
| c1ccc(CSc2nnc(-c3ccco3)n2Cc2ccco2)cc1 | inconclusive: 3.7 µM [inhibitor, partial curve] |
| CC1=[N+](C)c2c(ccc3cccnc23)C1(C)C | inactive |
| COc1cccc(C2c3[nH]c4ccccc4c3CCN2Cc2cnn(C)c2)c1 (stereo unspecified) | inconclusive: 18.5 µM [inhibitor, single point] |
| C=CCO/N=C(/CCC)C1=C(N)CC(C)(C)CC1=O | inactive |
| CCN(CC)CCNC(=O)C(=O)Nc1cc2c3c(c1)CCN3C(=O)CC2 | inconclusive: 4.65 µM [inhibitor, partial curve, poor fit] |
| Cc1ccc(NC(=O)c2nnn(CC(=O)Nc3ccccc3)c2N)cc1C | inconclusive: 11.7 µM [inhibitor, single point] |
| Cc1csc(=O)n1CC(=O)OCC(=O)NNC(=O)c1ccccc1 | inactive |
| CCOC(=O)N1CCN(C(=O)c2noc3c2COc2ccccc2-3)CC1 | inconclusive: 0.0029 µM [inhibitor, full curve, poor fit] |
| O=C(Nc1ccccc1)c1ccc(NCc2ccco2)c(S(=O)(=O)N2CCOCC2)c1 | inactive |
| Cc1ccc(NC(=O)C(OC(=O)c2ccc(NC(N)=O)cc2)c2ccccc2)cc1Cl (stereo unspecified) | inconclusive: 18.5 µM [inhibitor, single point] |
| CC(=O)c1sc(NC(=O)CCOc2ccccc2)nc1C | inactive |
| Cc1ccc2nc(NC(=O)c3cc(-c4ccco4)nc4ccccc34)sc2c1 | inconclusive: 4.15 µM [inhibitor, full curve, poor fit] |
| CCCCNC(=O)N1CCN(C(c2ccccc2)c2ccccc2)CC1 | inconclusive: 4.65 µM [inhibitor, partial curve, poor fit] |
| CC(C)C(=O)NC(=S)Nc1ccccc1F | inconclusive: 0.117 µM [inhibitor, full curve] |
| CCNc1ccc(C(=O)OCC(=O)c2cc(C)n(Cc3ccc4c(c3)OCO4)c2C)cc1[N+](=O)[O-] | inconclusive: 18.5 µM [inhibitor, partial curve, poor fit] |
| COc1ccccc1CNC(=O)c1ccc(-c2ccccc2C(F)(F)F)o1 | inconclusive: 11.7 µM [inhibitor, single point] |
